Test results: patent US20040063790A1, “Methods for inhibition of angiogenesis” (The Scripps Research Institute, priority 1996, published 2004)
Read-outs that look alike come from different tables or passages of the source. Part of at least one peptide drawing is inferred or uncertain, most often the ends. Where a SMILES comes first, the peptide text is derived from it.

Protein sequences, listed by entry. Tags and fused reporters are not part of them. Residues count along the entry.
UniProt P05106, 27-788: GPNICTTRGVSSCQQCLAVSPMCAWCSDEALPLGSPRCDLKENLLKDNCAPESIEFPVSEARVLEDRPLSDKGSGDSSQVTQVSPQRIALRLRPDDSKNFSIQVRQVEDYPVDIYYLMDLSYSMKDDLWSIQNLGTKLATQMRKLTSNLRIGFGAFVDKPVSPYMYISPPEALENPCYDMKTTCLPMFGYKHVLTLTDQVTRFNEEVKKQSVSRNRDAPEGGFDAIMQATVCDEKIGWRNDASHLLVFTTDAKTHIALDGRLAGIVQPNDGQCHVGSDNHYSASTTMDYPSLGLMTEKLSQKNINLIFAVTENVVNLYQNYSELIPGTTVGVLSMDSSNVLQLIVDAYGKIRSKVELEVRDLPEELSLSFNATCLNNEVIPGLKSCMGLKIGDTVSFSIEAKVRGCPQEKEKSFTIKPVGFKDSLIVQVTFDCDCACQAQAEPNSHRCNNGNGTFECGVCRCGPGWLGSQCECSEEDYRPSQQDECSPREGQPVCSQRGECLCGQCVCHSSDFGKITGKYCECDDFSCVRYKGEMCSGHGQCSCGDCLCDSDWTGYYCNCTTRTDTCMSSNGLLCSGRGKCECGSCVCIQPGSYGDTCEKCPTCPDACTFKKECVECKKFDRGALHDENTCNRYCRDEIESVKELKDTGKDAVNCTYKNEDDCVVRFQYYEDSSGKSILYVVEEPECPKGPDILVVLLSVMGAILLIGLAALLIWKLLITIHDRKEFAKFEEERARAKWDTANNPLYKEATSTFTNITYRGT
UniProt P06756, 891-1048 partner limits assumed: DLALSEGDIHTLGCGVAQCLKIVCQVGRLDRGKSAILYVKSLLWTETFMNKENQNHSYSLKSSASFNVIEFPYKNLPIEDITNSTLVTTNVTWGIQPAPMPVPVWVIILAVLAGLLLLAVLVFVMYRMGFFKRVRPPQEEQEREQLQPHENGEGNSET
UniProt P06756, 31-889 limits assumed: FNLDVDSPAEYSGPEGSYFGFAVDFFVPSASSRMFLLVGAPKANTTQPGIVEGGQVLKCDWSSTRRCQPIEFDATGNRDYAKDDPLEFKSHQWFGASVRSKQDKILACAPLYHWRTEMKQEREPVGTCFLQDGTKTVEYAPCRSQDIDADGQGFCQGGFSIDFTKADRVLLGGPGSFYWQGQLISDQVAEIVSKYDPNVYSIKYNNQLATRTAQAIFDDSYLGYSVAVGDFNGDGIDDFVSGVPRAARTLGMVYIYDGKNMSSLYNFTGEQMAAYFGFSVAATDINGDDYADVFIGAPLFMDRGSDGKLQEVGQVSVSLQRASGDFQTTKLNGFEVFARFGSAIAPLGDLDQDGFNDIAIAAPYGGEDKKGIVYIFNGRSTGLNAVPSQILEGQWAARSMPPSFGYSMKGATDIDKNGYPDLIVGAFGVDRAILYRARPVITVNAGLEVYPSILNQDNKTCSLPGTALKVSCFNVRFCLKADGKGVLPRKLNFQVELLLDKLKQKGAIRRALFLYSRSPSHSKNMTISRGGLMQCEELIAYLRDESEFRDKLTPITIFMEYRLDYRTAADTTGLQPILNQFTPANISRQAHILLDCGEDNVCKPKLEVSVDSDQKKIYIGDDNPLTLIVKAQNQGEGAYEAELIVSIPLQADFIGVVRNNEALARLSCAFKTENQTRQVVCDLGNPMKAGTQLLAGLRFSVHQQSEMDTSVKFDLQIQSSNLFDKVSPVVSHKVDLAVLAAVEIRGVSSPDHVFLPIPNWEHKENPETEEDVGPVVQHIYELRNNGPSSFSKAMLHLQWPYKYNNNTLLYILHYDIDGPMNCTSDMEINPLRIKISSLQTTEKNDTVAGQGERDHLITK
UniProt P08514, 32-887 limits assumed: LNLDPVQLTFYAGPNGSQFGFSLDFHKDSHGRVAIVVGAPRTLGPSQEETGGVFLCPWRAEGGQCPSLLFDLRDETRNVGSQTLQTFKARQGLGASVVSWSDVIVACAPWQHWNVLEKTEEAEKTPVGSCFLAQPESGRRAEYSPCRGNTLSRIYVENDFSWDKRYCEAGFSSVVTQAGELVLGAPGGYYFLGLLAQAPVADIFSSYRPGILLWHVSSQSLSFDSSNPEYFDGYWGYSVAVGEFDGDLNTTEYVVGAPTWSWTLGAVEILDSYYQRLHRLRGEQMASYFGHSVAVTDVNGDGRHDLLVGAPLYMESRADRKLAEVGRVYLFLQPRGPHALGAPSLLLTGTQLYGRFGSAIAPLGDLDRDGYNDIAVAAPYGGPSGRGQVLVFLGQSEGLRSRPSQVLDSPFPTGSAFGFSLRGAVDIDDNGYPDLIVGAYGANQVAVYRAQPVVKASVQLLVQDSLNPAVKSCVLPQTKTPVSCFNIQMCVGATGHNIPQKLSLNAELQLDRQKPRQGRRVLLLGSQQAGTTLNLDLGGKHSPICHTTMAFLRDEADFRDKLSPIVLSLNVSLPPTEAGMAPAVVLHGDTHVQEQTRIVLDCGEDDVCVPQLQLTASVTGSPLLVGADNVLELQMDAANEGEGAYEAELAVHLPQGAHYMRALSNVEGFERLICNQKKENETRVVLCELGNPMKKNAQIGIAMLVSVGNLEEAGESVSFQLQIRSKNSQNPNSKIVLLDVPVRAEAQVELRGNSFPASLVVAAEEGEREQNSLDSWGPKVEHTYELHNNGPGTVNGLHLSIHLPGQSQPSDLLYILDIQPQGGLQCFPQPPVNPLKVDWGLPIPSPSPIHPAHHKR
UniProt P08514, 891-1039 partner limits assumed: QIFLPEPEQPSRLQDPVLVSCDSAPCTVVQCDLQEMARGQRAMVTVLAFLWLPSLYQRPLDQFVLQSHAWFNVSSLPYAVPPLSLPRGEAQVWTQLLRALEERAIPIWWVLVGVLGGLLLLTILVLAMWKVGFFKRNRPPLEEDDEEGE

Key:
[1] = target: T1, αvβ3 (Homo sapiens, UniProt P05106+P06756); experiment: Ligand-receptor binding assay, immobilized αvβ3; settings: for IC50: individual assay
T1 construct: selected purified integrins were separately immobilized in Titertek microtiter wells
Excerpt: (§1) Herein described is a method of identifying antagonists in a ligand-receptor binding assay in which the receptor is immobilized to a solid support and the ligand and antagonist are soluble. Also described is a ligand-receptor binding assay in which the ligand is immobilized to a solid support and the receptor and antagonists are soluble.
(§2) Briefly, selected purified integrins were separately immobilized in Titertek microtiter wells at a coating concentration of 50 nanograms (ng) per well. The purification of the receptors used in the ligand-receptor binding assays are well known in the art and are readily obtainable with methods familiar to one of ordinary skill in the art. After incubation for 18 hours at 4° C., nonspecific binding sites on the plate were blocked with 10 milligrams/milliliter (mg/ml) of bovine serum albumin (BSA) in Tris-buffered saline. […] Radiolabeled ligands were used at concentrations of 1 nM and binding was challenged separately with unlabeled synthetic peptides.
(§3) Following a three hour incubation, free ligand was removed by washing and bound ligand was detected by gamma counting. […] The IC50 data in micromoles (IC50 μM) are expressed as the average of duplicate data points±the standard deviation as shown in Table 2.

[2] = target: T2, αIIbβ3 (Homo sapiens, UniProt P05106+P08514); experiment: Ligand-receptor binding assay, immobilized αIIbβ3; settings: individual assay
T2 construct: selected purified integrins were separately immobilized in Titertek microtiter wells
Excerpt: as §1, §2, §3

[3] = fibrinogen, read-out: αvβ3 IC50 (μM) FG
[4] = vitronectin, read-out: αvβ3 IC50 (μM) VN

| Structure (SMILES) | IC50 [1, 3] [µM] | inhibiting binding of FG or VN to αvβ3 ([1]; linearized peptides) | IC50 [1, 4] [µM] | IC50 ([2]; fibrinogen, read-out: αIIbβ3 IC50 (μM) FG) [µM] | IC50 ([2]; vitronectin, read-out: αIIbβ3 IC50 (μM) VN) [µM] |
| --- | --- | --- | --- | --- | --- |
| CC(C)[C@H](NC(=O)[C@H](CC(=O)O)NC(=O)CNC(=O)[C@H](CCCNC(=N)N)NC(=O)[C@@H](NC(=O)[C@@H](NC(=O)[C@H](CCC(N)=O)NC(=O)[C@@H]1CCCN1C(=O)[C@H](CCCCN)NC(=O)[C@H](CS)NC(=O)[C@H](CCC(=O)O)NC(=O)[C@H](C)NC(=O)[C@@H](NC(=O)[C@@H](N)Cc1ccc(O)cc1)[C@@H](C)O)C(C)C)[C@@H](C)O)C(=O)N[C@@H](Cc1ccccc1)C(=O)O [Peptide 62880] (H-YTAECKPQVTRGDVF-OH; N-terminus and C-terminus assumed) | < 0.1 | effective at inhibiting the half-maximal binding of either FG or VN to αvβ3 | 0.5 | 4.2 | 0.98 |
| CC(C)C[C@H](NC(=O)[C@H](CC(=O)O)NC(=O)[C@H](Cc1c[nH]cn1)NC(=O)[C@H](CCCNC(=N)N)NC(=O)CNC(=O)[C@H](CC(=O)O)NC(=O)CNC(=O)[C@H](CC(N)=O)NC(=O)[C@@H](NC(=O)[C@H](CC(=O)O)NC(=O)[C@@H](N)[C@@H](C)O)C(C)C)C(=O)O [Peptide 62502] (H-TDVNGDGRHDL-OH; N-terminus and C-terminus assumed) | > 100 |  | > 100 |  |  |
